Measured values taken from the supplement of paper PMC7238544.
Structures can show the parent of a compound that is named as a salt. ± gives the standard deviation of the averaged measurements. The list shows a part of the results. The data scatter; read single values as rough.

Columns and labels:
hAMSC donor 1 [1] = test: Hoechst total cell count ratio vs vehicle control; higher = more cells (less toxicity)
hAMSC donor 2 [2] = test: as above
hAMSC donor 1 [3] = test: transgenic luciferase activity (RLU/mg protein) fold change vs vehicle control (ratio); higher = more transgene expression
hAMSC donor 1 [4] = test: transfection efficiency (EGFP+ cells / Hoechst count) fold change vs vehicle control (ratio); hAMSC are human adipose-derived mesenchymal stem cells given an EGFP-luciferase plasmid by lipofection; higher = enhanced transfection
hAMSC donor 2 [5] = test: as above
[6] = priming compound concentration 0.2 µM
[7] = priming compound concentration 1.7 µM
[8] = priming compound concentration 13 µM

SMILES | Hoechst total cell count ratio (hAMSC donor 1 [1]; [6]) | Hoechst total cell count ratio (hAMSC donor 1 [1]; [7]) | Hoechst total cell count ratio (hAMSC donor 1 [1]; [8]) | Hoechst total cell count ratio (hAMSC donor 2 [2]; [6]) | Hoechst total cell count ratio (hAMSC donor 2 [2]; [7]) | Hoechst total cell count ratio (hAMSC donor 2 [2]; [8]) | transgenic luciferase activity (hAMSC donor 1 [3]; [7]) | transfection efficiency (hAMSC donor 1 [4]; [6]) | transfection efficiency (hAMSC donor 1 [4]; [7]) | transfection efficiency (hAMSC donor 1 [4]; [8]) | transfection efficiency (hAMSC donor 2 [5]; [6]) | transfection efficiency (hAMSC donor 2 [5]; [7]) | transfection efficiency (hAMSC donor 2 [5]; [8]) | transgenic luciferase activity (hAMSC donor 1 [3]; [8]) | transgenic luciferase activity (hAMSC donor 1 [3]; [6])
CCCSc1ccc2[nH]c(NC(=O)OC)nc2c1 [Albendazole] | 1.31 ± 0.21 | 1.09 ± 0.082 | 1.1 ± 0.025 | 0.992 ± 0.063 | 1.09 ± 0.3 | 0.559 ± 0.1 | 0.567 ± 0.11 | 1.2 ± 0.3 | 1.23 ± 0.28 | 1.12 ± 0.43 | 1.29 ± 0.32 | 1.36 ± 0.075 | 1.36 ± 0.43 |  | 
CC(COc1ccccc1)NC(C)C(O)c1ccc(O)cc1 (configuration not stated) [Duvadilan] | 1.38 ± 0.21 | 1.17 ± 0.025 | 1.33 ± 0.1 | 1.11 ± 0.23 | 0.678 ± 0.12 | 1.4 ± 0.41 | 0.403 ± 0.05 | 1.39 ± 0.19 | 0.88 ± 0.079 | 0.813 ± 0.082 | 0.928 ± 0.34 | 1.73 ± 0.12 | 1.26 ± 0.47 |  | 
CCC1=C[C@@H]2CN(C1)Cc1c([nH]c3ccccc13)[C@@](C(=O)OC)(c1cc3c(cc1OC)N(C)[C@H]1[C@@](O)(C(=O)OC)[C@H](OC(C)=O)[C@]4(CC)C=CCN5CC[C@]31[C@@H]54)C2 [Vinorelbine tartrate] | 1.16 ± 0.22 | 0.831 ± 0.065 | 0.659 ± 0.15 | 0.738 ± 0.097 | 0.458 ± 0.024 | 0.576 ± 0.13 |  | 1.09 ± 0.29 | 1.26 ± 0.072 | 1.02 ± 0.073 | 1.36 ± 0.39 | 1.53 ± 0.21 | 0.815 ± 0.24 | 0.792 ± 0.3 | 
CCCOc1ccc(C(=O)OCCN(CC)CC)cc1N [Proxymetacaine] | 1.42 ± 0.091 | 1.39 ± 0.18 | 1.2 ± 0.14 | 0.869 ± 0.14 | 1.231 ± 0.01 | 1.25 ± 0.17 |  | 0.856 ± 0.21 | 0.864 ± 0.035 | 0.914 ± 0.11 | 1.25 ± 0.14 | 0.992 ± 0.06 | 1.1 ± 0.22 |  | 0.678 ± 0.28
CC(C(=O)O)c1ccc(-c2ccccc2)c(F)c1 (configuration not stated) [Flurbiprofen] | 1.28 ± 0.06 | 1.1 ± 0.12 | 1.32 ± 0.032 | 1.35 ± 0.014 | 1.49 ± 0.4 | 1.31 ± 0.11 |  | 0.889 ± 0.3 | 1.13 ± 0.36 | 0.748 ± 0.16 | 0.953 ± 0.1 | 1.23 ± 0.44 | 0.862 ± 0.17 | 0.516 ± 0.25 | 
O=C(CCNNC(=O)c1ccncc1)NCc1ccccc1 [Nialamide] | 1.18 ± 0.2 | 1.21 ± 0.19 | 1.32 ± 0.3 | 0.943 ± 0.16 | 1.99 ± 0.92 | 0.832 ± 0.21 |  | 1.12 ± 0.57 | 1.28 ± 0.35 | 0.973 ± 0.37 | 1.14 ± 0.25 | 1.17 ± 0.07 | 1.24 ± 0.17 | 0.687 ± 0.14 | 
COc1cc(/C=C/c2ccc(O)cc2)cc(OC)c1 [Pterostilbene] | 1.31 ± 0.29 | 1.1 ± 0.041 | 0.947 ± 0.14 | 1.25 ± 0.24 | 1.26 ± 0.093 | 1.24 ± 0.2 |  | 1.03 ± 0.29 | 1.09 ± 0.28 | 1.47 ± 0.22 | 1.13 ± 0.2 | 1.34 ± 0.074 | 1.11 ± 0.11 | 1.57 ± 0.31 | 
Cc1nc(=O)c2cc(CN(C)c3ccc(C(=O)N[C@@H](CCC(=O)O)C(=O)O)s3)ccc2[nH]1 [Raltitrexed] | 1.18 ± 0.029 | 1.53 ± 0.26 | 1.19 ± 0.13 | 0.992 ± 0.063 | 1.12 ± 0.069 | 0.948 ± 0.057 |  | 1.08 ± 0.36 | 0.734 ± 0.36 | 0.952 ± 0.13 | 1.08 ± 0.15 | 1.06 ± 0.17 | 1.06 ± 0.099 |  | 1.11 ± 0.33
CCN(CC)C(=O)C1(c2ccccc2)CC1CN (configuration not stated) [Milnacipran hydrochloride] | 1.23 ± 0.077 | 1.1 ± 0.12 | 1.06 ± 0.018 | 1.28 ± 0.23 | 1.3 ± 0.086 | 1.26 ± 0.2 |  | 1.1 ± 0.14 | 0.951 ± 0.06 | 1.12 ± 0.27 | 1.12 ± 0.14 | 0.959 ± 0.088 | 1.18 ± 0.14 | 0.981 ± 0.059 | 
COCCCOc1ccnc(C[S+]([O-])c2nc3ccccc3[nH]2)c1C (configuration not stated) [Rabeprazole] | 1.33 ± 0.24 | 1.24 ± 0.27 | 0.99 ± 0.11 | 1.53 ± 0.21 | 1.05 ± 0.095 | 1.22 ± 0.095 |  | 1.17 ± 0.34 | 1.38 ± 0.32 | 1.49 ± 0.28 | 0.595 ± 0.12 | 1.1 ± 0.062 | 1.31 ± 0.11 | 0.825 ± 0.12 | 
CO[C@H]1/C=C/O[C@@]2(C)Oc3c(C)c(O)c4c(O)c(c5c(nc6cc(C)ccn65)c4c3C2=O)NC(=O)/C(C)=C\C=C\[C@H](C)[C@H](O)[C@@H](C)[C@@H](O)[C@@H](C)[C@H](OC(C)=O)[C@@H]1C [Rifaximin] | 1.46 ± 0.14 | 1.22 ± 0.063 | 1.25 ± 0.16 | 1.11 ± 0.081 | 1.28 ± 0.097 | 1.09 ± 0.46 |  | 0.825 ± 0.076 | 0.891 ± 0.11 | 0.678 ± 0.14 | 0.972 ± 0.017 | 0.927 ± 0.088 | 0.784 ± 0.26 | 1.09 ± 0.59 | 
O=C(O)CCNC(=O)c1ccc(/N=N/c2ccc(O)c(C(=O)O)c2)cc1 [Balsalazide] | 1.16 ± 0.15 | 1.12 ± 0.11 | 1 ± 0.043 | 0.913 ± 0.052 | 1.2 ± 0.15 | 1.29 ± 0.17 |  | 1.04 ± 0.093 | 1.05 ± 0.18 | 1.09 ± 0.15 | 1.17 ± 0.12 | 1.03 ± 0.29 | 0.959 ± 0.16 |  | 1.21 ± 0.7
CCCCCCCCCCC[C@@H](C[C@@H]1OC(=O)[C@H]1CCCCCC)OC(=O)[C@H](CC(C)C)NC=O [Orlistat] | 1.42 ± 0.23 | 1.45 ± 0.11 | 1.29 ± 0.064 | 1.11 ± 0.15 | 1.13 ± 0.099 | 0.974 ± 0.21 |  | 1.14 ± 0.46 | 0.989 ± 0.11 | 1.09 ± 0.28 | 1.14 ± 0.023 | 1.17 ± 0.096 | 1.24 ± 0.3 | 0.975 ± 0.66 | 
CN(C)[C@@H]1C(O)=C(C(=O)NCN2CCCC2)C(=O)[C@@]2(O)C(O)=C3C(=O)c4c(O)cccc4[C@@](C)(O)[C@H]3C[C@@H]12 [Rolitetracycline] | 1.58 ± 0.097 | 1.54 ± 0.068 | 1.24 ± 0.07 | 1.135 ± 0.0072 | 1.11 ± 0.055 | 1.06 ± 0.071 |  | 0.862 ± 0.14 | 0.823 ± 0.2 | 1.05 ± 0.14 | 1.14 ± 0.37 | 1.05 ± 0.091 | 0.851 ± 0.46 | 0.736 ± 0.57 | 
